Results are given in words; binding and its absence hold for the method and conditions named. Binding seen in cells or lysates may run through a third protein. A yes stands for co-enrichment or nearness to the bait. Other partners may have been found. Tags and fused reporters may be left off the sequences shown.
T1: MecA with C-terminal tandem affinity purification (TAP) tag (3x HA + FLAG) (S. mutans) (UniProt Q8DW33)
T1 sequence: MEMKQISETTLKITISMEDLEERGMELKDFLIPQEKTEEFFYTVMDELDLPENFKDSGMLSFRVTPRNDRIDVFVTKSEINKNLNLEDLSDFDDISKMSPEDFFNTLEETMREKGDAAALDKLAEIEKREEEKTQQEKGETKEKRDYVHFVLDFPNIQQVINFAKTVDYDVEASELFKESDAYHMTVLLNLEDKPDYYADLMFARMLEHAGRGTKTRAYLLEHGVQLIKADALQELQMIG

B1: Beta-ketoacyl-ACP synthase II, FabF (protein, UniProt Q8DSN6 1-410)
chain: MTLKRVVVTGYGVTSPIGHTPEDFWNSLHDGKIGIKPITKFDASEIPVFNAGEIQDFPFDKYFVKKDKNRMDTYSLYAIYAAMEAIENAALDMAQEIRDRVGVIVSSGIGGLQELEDQIIRMHERGMKRIKPMFIPKALSNMGAGNIALKIGAQGVCKSITTACASANDAIGEAFREIKYGFHDVILAGGSEASITKIGIGGFNALTALSTTEDPARSAIPFDKDRNGFVMGEGAAVLILESLEHAQKRGARILAEVVGYGSNCDAYHMTTPTPDGSGAAKAIKLAINEAGISPEEVNYVNAHGTSTQANEKGESKAIVAVLGKDVPVSSTKSFTGHLLGAAGGVEAIATIEAIRNHFVPMTAGTKELSEDIEANVVYGQGQEAVIKYAISNTFGFGGHNAVLAFKRWED
B2: Cell division protein, FtsZ (protein, UniProt Q8DVD9 1-434)
chain: MAFSFDAASVQGAVIKVIGVGGGGGNAINRMIDEGVAGVEFIAANTDIQALSSSKAETVIQLGPKLTRGLGAGGQPEIGRKAAEESEEALTEALTGADMVFITAGMGGGSGTGAAPVIARIAKGLGSLTVAVVTRPFGFEGSKRGNYAIEGINELRDEVDTLLIISNNNLLEIVDKKTPLLEALSEADNVLRQGVQGITDLITSPGLINLDFADVKTVMASKGNALMGIGIGTGEERVVEAARKAIYSPLLETTIDGAEDVIVNVTGGLDMTLTEAEEASEIVNQAAGHGVNIWLGTSIDDSMKDEIRVTVVATGVRPDKADQVSGIRRQASSYTQPRAQQQAPSSNSAQPNFERRQNFDFDLNESPEMPAAEPQQTQSSSEPQQSAFGDWNLRRENIARPTEGEIDSQLKMSSFSADSDDDDELETPPFFKNR
B3: FtsQ-type POTRA domain-containing protein, FtsQ (protein, UniProt Q8DVE1 1-374)
chain: MAKDKDTEKQEIPLTEWQQRNLEFLKKKQEEKREKEKLNEKKMAEKKAQFQTDKEADSKESDKQPSSLFDDKKQEEPKKKPATPKKIKKEKKVPKLPRKDYWQAAMVIIISSIVLIASLFMISPLSRQKEITVSGNKNAIESQLIEELGIKKSDYLTTLLFQANRFERNLKSKDKWVKEAKLVYHFPNHFTLRVKEYRIIAYRQTDKGYVPILENGTRVDTVNASELPGSFVTINLDQEKEVRELVQKLAKLDKSLVGSIKVISSVNSSSTKDLLLLEMKDNNSVRVPLSEIDTKLPYYSKIKKNLTDGSIVDMEVGIYSTTADIEASIAEHKTTATTESSENSSNAENTDSTQSSEANSQEGSQSVTQATVSQ
B4: 3-oxoacyl-[acyl-carrier-protein] reductase, FabG (protein, UniProt Q8DSN5 1-244)
chain: MEIKNKNVFITGSTRGIGLAIAHKFAQAGANIVLNGRSEISQDLVAEFKDYGVKVATISGDVSHFEDAKRMVDEATEALGSVDILVNNAGITNDKLMLKMTEEDFERVLKINLTGSFNMTKAVLKPMTKARQGAIINMSSVVGLAGNVGQANYAASKAGLIGFTKAVAREVAARNIRVNAIAPGFIESDMTERIPNKMKDAMLNQIPMKTFGKTENVAEVAMFLAQQDYLTGQVIAIDGGMTMQ
B5: Acetyl-CoA carboxylase biotin carboxylase subunit, AccC (protein, UniProt Q8DSN9 1-456)
chain: MFKKILIANRGEIAVRIIRAARELGIVTVAVYSEADKESLHTLLADEAVCVGPAKSTDSYLNMNAILSAAIVTGAEAIHPGFGFLSENSKFATMCEEMRIKFIGPSASVMDKMGDKINARSEMLKAKVPVIPGSDGEVFTAQEALEIAQDIGYPVMLKASAGGGGKGIRKVDKKEDLTAAFESASQEALSAFGNGAMYLEKVIYPARHIEVQILGDSFGNIIHLGERDCSLQRNNQKVLEESPSIAIGKTLRGKMGDAAVRAAKAVAYENAGTIEFLLDEASGQFYFMEMNTRVQVEHPVTEFVTGIDIVKEQIKIAAGQELTYQQKDIVISGHAIECRINAENPKFNFAPSPGKVEDLFLPSGGVGLRVDSAMYNNYTIPPYYDSMIAKIIVHGENRFDALMKMQRALYEFEVTGVVTNAEFQLDLISNPNVIAGDYDTSFLMETFLPAYANDKE
B6: phospho-sugar mutase, Pgm (protein, UniProt Q8DU72 1-571)
chain: MVYQENYQKWLAYAKLPDYLHQELLAMDEKTKEDAFYTNLEFGTAGMRGYIGAGTNRINIYVVRQATEGLAQLIETKGDDVKKRGVAIAYDSRHFSQEFAFESAQVLAKHGIKAYVFESLRPTPELSFTVRHLGTFAGIMVTASHNPAPFNGYKVYGEDGGQMPPFDADALTDFIRAINDPFSIELADLEESKASGLIEVIGEAVDTDYLKEVKDVNINQKLIDEYGKDMKIVYTPLHGTGEMLARRALAQAGFDSVQVVEAQAVPDPDFSTVKSPNPENQEAFRLAEELGRQVDADVLVATDPDADRLGVEIRQADGSYKNLSGNQIGAIIAKYILEAHKTAGSLPTNAALCKSIVSTELVSKIAESYGATMFNVLTGFKFIAEKIQEFEEKHNHTYMFGFEESFGYLIKPFVRDKDAIQAVLIVAEIAAYYRSRGLTLADGIDEIYKEYGYFAEKTISVTLSGVDGATEIKKIMDKFRGDAPKQFNATDVVKLEDFQAQTATTADGIEKLTTPPSNVLKYILSDASWIAVRPSGTEPKIKFYIATVGNNSEDAQVKIANIEKEINDFVG
B7: Chromosome segregation protein, SMC (protein, UniProt Q7ZAL0 1-1178)
chain: MFLKEIEMQGFKSFADKTKVEFDRGVTAVVGPNGSGKSNITESLRWALGESSAKSLRGGKMPDVIFAGTENRKPLNYAQVTVILDNSDAFIKDAQEEIRIERHIYRNGDSDYLIDGKKVRLRDIHDLFMDTGLGRDSFSIISQGRVEEIFNSKPEERRSIFEEAAGVLKYKTRKKETQSKLTQTQDNLDRLDDIIYELETQIKPLERQAKTAKEFLVLETERKEKQLDLLVYQILHHKEALVKNQAELEKVKQNLAAYYQERDLLETKNQTLKEKRHQLSRQMDQKQADLLEMTRLISDYERQIERIHLEVSQKTEKKQSTQKSLEQLSEQKASLKTELAQKEVDLEQLEEDLKQKNQEIKNVETELSRFATDPDHIIESLREDFVRLMQKEADTSNQLAVLKAEMDSRKQESESKTAEIKQVQADLEKAKDREQRESANFETAKTKVQELLKDYQKTAQLVQNLEAAYAEQQEAMFQLLDDVKDKKARQSSLKSILKSHSNFYAGVRSVLQQADKIKGIVGAVSEHLTFDKKYQTALEIALGASSQNIIVEDEAAAKRSIDFLKKNHQGRATFLPLTTIKPRRLSESNQSLLTSSQGFLGLARDLVSFEPRLQTIFGNLLGVTAIFDTVGHANQAARQLRYQVRLVTLDGTEIRPGGSFSGGTSRQNNTTFIKPELDHLTQELALLEEKQVEQERIVEKTKQDLEVKKADLLELREKGNQARLAEQKAEMEYQQSESHLQELVLLYTQLKQTNQADLNRDLEKDQALLQEKLYKIADDKEKLNQEIAQIKEDKDSIQQKTAALSQRLSSLQLSERDLANTQKFERTNLKRLAEELAELEQNEAGMMQLLDSQEEDLDEKRLPSLKRQLANAQARKTESDQELVRYRFELEDCEAQLEEVETNLLKTNQKNEEFIRQQTQLEAKRDHLSNQLRRFANNLAEDYQLSLDDAKQEAGPIENLEAAQAHLSQLEKQIKGLGPVNLDAIGQYDEVSERLHFLNSQKDDLVHAKELLLNTIHDMDDEVKARFKTTFEAIRDSFKTTFTQMFGGGSADLLLTEGDLLMTGVEISVQPPGKKIQSLNLMSGGEKALSALALLFAIIRVKTIPFVILDEVEAALDEANVKRFGDYLNRFDKSSQFIVVTHRKGTMSAADSIYGVTMQESGVSKIISVKLKEVEKIS
B8: 3-deoxy-7-phosphoheptulonate synthase, AroG (protein, UniProt Q8DSF2 1-344)
chain: MGIHQKSKTIDLFTVKQGTQLKGQDLAKKEARDRELVSIIKGEDNRLLLIIGPCSSDNEEAVLEYAKRLAKLQEEVKDRIFMVMRVYTAKPRTNGDGYKGLIHQPNTSKLPDLINGIHAVRNLHYRVITETGLTTADEMLYPSNLVLVDDLVSYHAVGARSVEDQEHRFVASGIDVPTGMKNPTSGNLKVMLNALHAAQNSQNFIYNGAEVETDGNSLAHVILRGGSNEHGDYEPNYYYDVLLKLIQQYENMNLINPFIVVDTNHDNSGKNYLEQVRIVRQTLINRDWNDKINKYVRGFMIESYLEDGRQDKPEVFGKSITDPCLGWENTQQLIYEIYHTLKAK
B9: Acetyl-CoA carboxylase carboxyl transferase subunit alpha, AccA (protein, UniProt Q8DSP1 1-256)
chain: MSDVSRILKEARSQSRLTTLDYAEQIFDDFMELHGDRHFADDGAIVGGIGLLDGQAVTVIGVQKGKNLQDNLNRNFGQPNPEGYRKALRLMKQAEKFKRPVVTFINTAGAYPGIGAEERGQGEAIARNLLEMSDLKVPIIAIIIGEGGSGGALALAVADKVWMLEHTMYAVLSPEGFASILWKDGSRSIEAAELMKITAGELLKMEVVDKVIPEHGYFSSEIIQMLKTNLIEELKNLDQYPLNDLLEKRYQRFRKY
B10: ACP S-malonyltransferase, FabD (protein, UniProt Q8CWW8 1-306)
chain: MTKTAFLFAGQGAQKLGMASDLYEIYPVVKETFKTAHSILGYDVRALIDNDEEKLNQTRYAQPAILTTSVAIYRLLKEKGYQPDIVAGLSLGEYSALVAAGAISFEDALALVAKRGEFMETAAPAGVGKMVAVMNTDPRLIEEICQKASSKGIVSPANYNTPTQIVIGGEVAAVDYAVELLKGAGSKRLISLKVSGPFHTALLKSASQKLAQALENIKFSDFMLPLVGNTKAEIMKEQEIKPLLARQVKEPVRFYESIAVMQKFGVNNYVEIGPGKVLSGFVKKIDKSAKISAVEDLASLQAFLDN
B11: Glutamate synthase subunit beta, GltB (protein, UniProt Q8CWY8 1-478)
chain: MADPFGFLKYERKDNPYRPVNERIKDFEELQTTLSVEERQKQAARCMNCGIPFCHEGTFYGGGRAVSGCPNDNLIPEWNDLIYKGDFRRAFERLTRTNPLPEMTGRVCPAPCEKACTEGLNGSGVTIHDNERFIIDNAFEEGWVADSGRPIERTGFKVAVVGSGPAGLSAAWRLNQLGHSVTVFERSDRFGGLLMYGIPNMKLDKKIVQRRIDTMASIGINFVANTEIGRDITAEELLEKFDRVILATGASVPRDLDIPGRDLKGIRFAVDFLTETTKNLLDSDTHELPPLLEGKHVLVIGGGDTGNDCIGTAVRLGAASVRQLEITPQLPEKRLPTNPWPQYPMINRTGYGQEEADFVQQTDLTDYITSTVEFLGENGQVTAVKTIKVGPGFKAIEGTEEVIKADLVLLAMGFTGAEKALFDQFRVECVYDDYSTRNEKVFVAGDARRGPSLVIWGIREGRKTAEKIDQNLRMMVTE

What follows are binders tested against T1, MecA with C-terminal tandem affinity purification (TAP) tag (3x HA + FLAG) (S. mutans) (assay: affinity purification with mass spectrometry; MecA with C-terminal TAP tag (3x HA + FLAG) as bait; S. mutans grown to mid-logarithmic phase, formaldehyde crosslinked; anti-FLAG affinity resin, then anti-HA affinity resin; LC-MS/MS; three experiments; >=2-fold enrichment of spectral counts over the untagged wild type).

Row | binding | Binder
1 | binds | B1
2 | binds | B2
3 | binds | B3
4 | binds | B4
5 | binds | B5
6 | binds | B6
7 | binds | B7
8 | binds | B8
9 | binds | B9
10 | binds | B10
11 | binds | B11

Source: article PMC10845952
